Tested on: Plasmodium berghei
Experiment: Luciferase/luciferin-expressing antifolate-resistant parasites were used to infect a culture of HepG2 cells that were pre-incubated with compounds. Infected hepatocytes emit light due to the luciferase reaction. Assay results are presented as the percent inhibition of light emission compared to control. […]
Type: functional
Conditions: sporozoite, FFLUC_HILL_SLOPE 1.5, FFLUC_R_SQUARED 0.483, PBLUC_HILL_SLOPE 1.09, PBLUC_R_SQUARED 0.604, read-out: LUCIFERASE INFECTION ASSAY - IC50

`CCCCc1oc2ccccc2c1C(=O)c1cc(I)c(OCCN(CC)CC)c(I)c1` [AMIODARONE] showed an IC50 greater than 4.84 µM.
